According to PMC12241534:
These are yes or no findings as the source states them, for the method shown. Binding seen in cells or lysates may run through a third protein. Some entries that bind do so weakly or less than the wild type. Sequences can lack the tags named with a protein.

T1: GST-Myc-TAK1 (human) (UniProt O43318)
T1 sequence: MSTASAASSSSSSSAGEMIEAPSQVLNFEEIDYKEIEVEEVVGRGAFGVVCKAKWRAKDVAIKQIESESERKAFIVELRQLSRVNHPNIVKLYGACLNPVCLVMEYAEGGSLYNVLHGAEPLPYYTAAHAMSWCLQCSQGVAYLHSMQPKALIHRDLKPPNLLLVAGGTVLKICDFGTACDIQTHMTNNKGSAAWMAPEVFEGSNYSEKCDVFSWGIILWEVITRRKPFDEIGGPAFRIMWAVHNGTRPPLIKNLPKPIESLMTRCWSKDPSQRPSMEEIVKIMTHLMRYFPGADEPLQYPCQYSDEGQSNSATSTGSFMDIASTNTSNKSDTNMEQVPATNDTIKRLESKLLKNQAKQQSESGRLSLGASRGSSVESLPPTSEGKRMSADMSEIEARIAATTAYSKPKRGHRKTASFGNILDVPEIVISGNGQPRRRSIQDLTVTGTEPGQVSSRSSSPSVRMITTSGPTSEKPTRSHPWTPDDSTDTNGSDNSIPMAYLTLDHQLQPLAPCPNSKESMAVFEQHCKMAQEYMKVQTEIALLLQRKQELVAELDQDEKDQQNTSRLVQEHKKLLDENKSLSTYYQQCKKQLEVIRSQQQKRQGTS

T2: Myc-TAK1 (transforming growth factor beta-activated kinase 1) (human) (UniProt O43318)
T2 sequence: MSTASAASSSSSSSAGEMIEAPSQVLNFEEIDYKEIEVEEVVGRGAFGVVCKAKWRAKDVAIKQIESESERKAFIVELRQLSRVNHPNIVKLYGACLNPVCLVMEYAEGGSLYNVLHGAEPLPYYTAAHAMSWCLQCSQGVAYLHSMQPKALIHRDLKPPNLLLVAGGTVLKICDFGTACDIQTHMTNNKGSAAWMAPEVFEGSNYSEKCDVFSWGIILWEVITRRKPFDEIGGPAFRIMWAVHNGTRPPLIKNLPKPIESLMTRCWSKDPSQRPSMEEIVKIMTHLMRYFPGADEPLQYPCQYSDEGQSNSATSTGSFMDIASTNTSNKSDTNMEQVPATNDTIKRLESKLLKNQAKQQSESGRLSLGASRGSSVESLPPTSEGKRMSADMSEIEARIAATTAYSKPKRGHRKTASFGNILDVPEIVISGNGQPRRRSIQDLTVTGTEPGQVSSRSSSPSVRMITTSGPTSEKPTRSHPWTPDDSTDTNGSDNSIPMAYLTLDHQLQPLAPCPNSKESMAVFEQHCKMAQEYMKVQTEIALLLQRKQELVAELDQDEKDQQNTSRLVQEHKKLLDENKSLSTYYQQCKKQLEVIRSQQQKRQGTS

T3: GST-Myc-USP29 (human) (UniProt Q9HBJ7)
T3 sequence: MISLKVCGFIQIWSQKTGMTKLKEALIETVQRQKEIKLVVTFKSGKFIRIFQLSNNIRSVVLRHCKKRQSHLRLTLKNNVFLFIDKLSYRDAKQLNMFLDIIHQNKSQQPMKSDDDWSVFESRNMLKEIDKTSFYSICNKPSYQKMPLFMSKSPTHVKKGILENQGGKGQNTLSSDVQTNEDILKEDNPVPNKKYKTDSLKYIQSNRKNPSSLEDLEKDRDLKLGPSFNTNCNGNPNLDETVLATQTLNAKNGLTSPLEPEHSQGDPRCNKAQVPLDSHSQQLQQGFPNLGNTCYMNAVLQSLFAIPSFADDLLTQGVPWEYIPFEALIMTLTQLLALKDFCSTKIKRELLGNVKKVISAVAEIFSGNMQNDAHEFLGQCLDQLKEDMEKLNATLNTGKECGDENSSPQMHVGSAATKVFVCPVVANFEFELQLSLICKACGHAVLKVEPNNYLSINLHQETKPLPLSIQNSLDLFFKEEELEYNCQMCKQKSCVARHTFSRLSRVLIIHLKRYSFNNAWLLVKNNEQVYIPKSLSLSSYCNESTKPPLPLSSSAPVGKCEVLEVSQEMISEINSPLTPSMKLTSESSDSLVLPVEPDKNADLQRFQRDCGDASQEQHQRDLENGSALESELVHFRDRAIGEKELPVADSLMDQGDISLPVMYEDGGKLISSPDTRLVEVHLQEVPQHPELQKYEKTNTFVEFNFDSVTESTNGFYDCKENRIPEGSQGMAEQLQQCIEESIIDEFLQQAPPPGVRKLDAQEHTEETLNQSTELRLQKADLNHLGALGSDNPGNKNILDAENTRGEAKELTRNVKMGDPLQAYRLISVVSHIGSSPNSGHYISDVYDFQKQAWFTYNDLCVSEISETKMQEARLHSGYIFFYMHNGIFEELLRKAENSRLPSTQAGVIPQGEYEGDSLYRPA


Legend:
[1] = molecular target: T1, GST-Myc-TAK1 (human); experiment: pull-down; GST-tagged protein (GST-Myc-TAK1, GST-Myc-USP29 or GST-Myc) captured from transfected HEK293T lysate on Glutathione MagBeads (2 h, room temperature), then incubated with total protein overnight at 4 °C; Western blot; only the target purified
[2] = molecular target: T2, Myc-TAK1 (transforming growth factor beta-activated kinase 1) (human); experiment: co-IP; HEK293T cells co-transfected with Flag-USP29 and Myc-TAK1 for 48 h; lysate incubated with Flag or Myc antibody at 4 °C for 4 h, then Protein A/G magnetic beads overnight at 4 °C; Western blot
[3] = molecular target: T3, GST-Myc-USP29 (human); experiment: pull-down; GST-tagged protein (GST-Myc-TAK1, GST-Myc-USP29 or GST-Myc) captured from transfected HEK293T lysate on Glutathione MagBeads (2 h, room temperature), then incubated with total protein overnight at 4 °C; Western blot; only the target purified

| Binder | binding [1] | binding [2] | binding [3] |
| --- | --- | --- | --- |
| Flag-USP29 (ubiquitin-specific peptidase 29) (enzyme, UniProt Q9HBJ7 1-922) MISLKVCGFIQIWSQKTGMTKLKEALIETVQRQKEIKLVVTFKSGKFIRIFQLSNNIRSVVLRHCKKRQSHLRLTLKNNVFLFIDKLSYRDAKQLNMFLDIIHQNKSQQPMKSDDDWSVFESRNMLKEIDKTSFYSICNKPSYQKMPLFMSKSPTHVKKGILENQGGKGQNTLSSDVQTNEDILKEDNPVPNKKYKTDSLKYIQSNRKNPSSLEDLEKDRDLKLGPSFNTNCNGNPNLDETVLATQTLNAKNGLTSPLEPEHSQGDPRCNKAQVPLDSHSQQLQQGFPNLGNTCYMNAVLQSLFAIPSFADDLLTQGVPWEYIPFEALIMTLTQLLALKDFCSTKIKRELLGNVKKVISAVAEIFSGNMQNDAHEFLGQCLDQLKEDMEKLNATLNTGKECGDENSSPQMHVGSAATKVFVCPVVANFEFELQLSLICKACGHAVLKVEPNNYLSINLHQETKPLPLSIQNSLDLFFKEEELEYNCQMCKQKSCVARHTFSRLSRVLIIHLKRYSFNNAWLLVKNNEQVYIPKSLSLSSYCNESTKPPLPLSSSAPVGKCEVLEVSQEMISEINSPLTPSMKLTSESSDSLVLPVEPDKNADLQRFQRDCGDASQEQHQRDLENGSALESELVHFRDRAIGEKELPVADSLMDQGDISLPVMYEDGGKLISSPDTRLVEVHLQEVPQHPELQKYEKTNTFVEFNFDSVTESTNGFYDCKENRIPEGSQGMAEQLQQCIEESIIDEFLQQAPPPGVRKLDAQEHTEETLNQSTELRLQKADLNHLGALGSDNPGNKNILDAENTRGEAKELTRNVKMGDPLQAYRLISVVSHIGSSPNSGHYISDVYDFQKQAWFTYNDLCVSEISETKMQEARLHSGYIFFYMHNGIFEELLRKAENSRLPSTQAGVIPQGEYEGDSLYRPA | binds | binds |  |
| Flag-TAK1 (enzyme, UniProt O43318 1-606) MSTASAASSSSSSSAGEMIEAPSQVLNFEEIDYKEIEVEEVVGRGAFGVVCKAKWRAKDVAIKQIESESERKAFIVELRQLSRVNHPNIVKLYGACLNPVCLVMEYAEGGSLYNVLHGAEPLPYYTAAHAMSWCLQCSQGVAYLHSMQPKALIHRDLKPPNLLLVAGGTVLKICDFGTACDIQTHMTNNKGSAAWMAPEVFEGSNYSEKCDVFSWGIILWEVITRRKPFDEIGGPAFRIMWAVHNGTRPPLIKNLPKPIESLMTRCWSKDPSQRPSMEEIVKIMTHLMRYFPGADEPLQYPCQYSDEGQSNSATSTGSFMDIASTNTSNKSDTNMEQVPATNDTIKRLESKLLKNQAKQQSESGRLSLGASRGSSVESLPPTSEGKRMSADMSEIEARIAATTAYSKPKRGHRKTASFGNILDVPEIVISGNGQPRRRSIQDLTVTGTEPGQVSSRSSSPSVRMITTSGPTSEKPTRSHPWTPDDSTDTNGSDNSIPMAYLTLDHQLQPLAPCPNSKESMAVFEQHCKMAQEYMKVQTEIALLLQRKQELVAELDQDEKDQQNTSRLVQEHKKLLDENKSLSTYYQQCKKQLEVIRSQQQKRQGTS |  |  | binds |
